# pIC50: −log10 of the molar value. The match of structure and compound is tentative.
# Amino acid sequences for entries named in this document (tags omitted).
# UniProt P06730, whole entry: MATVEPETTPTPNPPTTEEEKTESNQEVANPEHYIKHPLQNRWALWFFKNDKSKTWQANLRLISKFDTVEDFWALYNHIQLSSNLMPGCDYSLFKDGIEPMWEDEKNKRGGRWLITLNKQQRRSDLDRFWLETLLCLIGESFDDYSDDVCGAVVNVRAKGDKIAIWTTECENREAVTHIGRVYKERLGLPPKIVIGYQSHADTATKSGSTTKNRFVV
# Biological target: recombinant eIF4E (Homo sapiens (Human), UniProt P06730)
# Experiment: Fluorescence polarization competition assay for eIF4E binding potency
# Conditions: read-out: elF4E FP, 75 nM recombinant eIF4E, 20 nM EDA-m7GDP-ATTO-550, IC50 class
# Procedure: Compounds were screened for eIF4E binding potency using a fluorescence polarization competition assay. All binding reactions were performed in fluorescence polarization buffer (FPB) containing 20 mM Tris pH 7.5, 100 mM NaCl, 1 mM DTT, and 0.02% Tween-20. Final binding reactions contained 75 nM recombinant eIF4E (Beryllium, custom order), 20 nM EDA-m^7GDP-ATTO-550 (Jena Bioscience, NU-827-550) and varying concentrations of the inhibitory compound of interest. Final DMSO concentration in each reaction was 1%.
# eIF4E protein was pre-incubated with EDA-m^7GDP-ATTO-550 in FPB at 2× concentrations for 5 minutes prior to the addition of compounds. Compounds (100×) were prepared using 3-fold serial dilutions in 100% DMSO, and subsequently diluted 1:50 in FPB to produce 2× stocks. 50 μl of 2× eIF4E/EDA-m^7GDP-ATTO-550 were transferred to the wells of a 96-well half-area black flat bottom polystyrene plate. 50 μl of 2× test compound were added, and binding reactions were allowed to equilibrate for 30 minutes at room temperature while protected from light. The fluorescent polarization signal was detected using a Victor 2 multi-label counter (Perkin Elmer) and the concentration necessary to achieve inhibition of eIF4E/EDA-m^7GDP-ATTO-550 binding by 50% (IC50) was calculated using data from an 8-point compound dilution series. […]
smiles,measurement,value
Cc1ncc(F)cc1-c1c(C(F)(F)F)cc2nc(C)n(CCOc3ccc(Cl)cc3-c3ccnc4ccsc34)c(=O)c2c1C#N [compound 706],pIC50,6.00 to 7.30

# Source: US11286268B1, “EIF4E-inhibiting compounds and methods” (EFFECTOR THERAPEUTICS, INC., priority 2019, dated 2022)
